Test results taken from patent US20090068643.
The exact form of at least one protein or probe is not confirmed. For some of these results: No signal at the amounts used counts as a negative.

Experiments:
[1] = tested on: Tli I restriction endonuclease; assay: enzyme reaction in vitro; conditions: purified recombinant protein, label: 5' anthraquinone quencher, fluorescein-dT
[2] = tested on: PspG1 (PspGI) restriction endonuclease; assay: enzyme reaction in vitro; conditions: 3' ddC, FAM-dT [20 (FAM-dT), 41 (3' ddC)], purified recombinant protein, label: 5' Iowa Black azo quencher, FAM-dT, letters built from the parent sequence and the stated change
[3] = no cleavage, site too close to quencher/fluorophore

With “CCGTTCTCGAGTTCGCTCGCCTATCCGCTTC (double strand) [primer/probe SEQ 4 amplicon]” the “activity on this sequence” value ([1]; internal fluorescein-dT between TT and CGCTCG (absent from listing), PCR product cleaved with Tli I added before PCR or after PCR (30 min 75 C), 3 mM MgCl2, 50 mM KCl) was “active”.

With “TTTTTTTCCTGGTTTTTTTTTTCGGCTTCCTCCACGTCATC (double strand) [FQT-5mC template probe, extended duplex]” the “activity on this sequence” value ([2]; 5-methyl-dC at marked C positions of 3' binding domain, 23,26,29,30,32,33,35,38 (5-methyl-dC), indirect: slightly stronger real-time PCR signal with PspG1) was “active”.

With “CCGTTCTCGAGGTTTTTTTCGCTCGCCTATCCGCTTC (double strand) [SEQ 23 duplex]” the “activity on this sequence” value ([1]; cleaved) was “active”.

In the case of “CCGTTCTCGAGCGCTCGCCTATCCGCTTC (double strand) [SEQ 19 duplex]”, the “activity on this sequence” value ([1]; cleaved, 12-base separation) is reported as “active”.

In the case of “CCGTTCTCGAGGTTTCGCTCGCCTATCCGCTTC (double strand) [SEQ 21 duplex]”, the “activity on this sequence” value ([1]; cleaved) is reported as “active”.

“TTTTTTTCCTGGTTTTTTTTTTCGGCTTCCTCCACGTCATC (double strand) [FQT-LNA template probe, extended duplex]” was tested, and the “activity on this sequence” value ([2]; LNA-C at marked C positions of 3' binding domain, 23,26,29,30,32,33,35,38 (LNA-C), indirect: real-time PCR signal about 3 cycles earlier with PspG1, 10 mM MgCl2) was “active”.

“TCTCGAGCGCTCGCCTATCCGCTTC (double strand) [SEQ 17 duplex]” was tested, and the “activity on this sequence” value [1, 3] was “not active”.

For “CCGTTCTCGAGGTTTTTCGCTCGCCTATCCGCTTC (double strand) [SEQ 22 duplex]”, the “activity on this sequence” value ([1]; cleaved) was “active”.

For “CCGTTCTCGAGGTCGCTCGCCTATCCGCTTC (double strand) [SEQ 20 duplex]”, the “activity on this sequence” value ([1]; cleaved) was “active”.

For “TTCTCGAGCGCTCGCCTATCCGCTTC (double strand) [SEQ 18 duplex]”, the “activity on this sequence” value [1, 3] was “not active”.
